Experimental data reported in patent publication US20130178463A1, “ENHANCED TRANSBUCCAL DRUG DELIVERY SYSTEM AND COMPOSITIONS” (Rutgers, The State University of New Jersey, priority 2010, published 2013).
Structures can show the parent of a compound that is named as a salt. Marks after values point to notes of the source that are not given here.

Test: In vitro transdermal permeation of LHCl, NHT and DHCl gels (Franz diffusion cells)
[1] = iontophoresis 0.3 mA for 8 h, listed as lidocaine HCl, mono-hydrochloride, monohydrate
[2] = iontophoresis 0.3 mA for 8 h, mono-hydrochloride, monohydrate

In the case of `CCN(CC)CC(=O)Nc1c(C)cccc1C` [Lidocaine HCl, 2-(Diethylamino)-2′,6′-acetoxylidide mono-hydrochloride, monohydrate], the Q8 (Control (untreated passive), 8 h) is reported as 59.7 ± 43.4 μg/cm^2, the Flux (Control (untreated passive), 8 h, […] LHCl, 2% NHT or 2% DHCl gel, mono-hydrochloride, monohydrate) is reported as 7.4 ± 5.8 μg/cm^2*h and the Flux (iontophoresis 0.1 mA for 8 h) is reported as 61.7 ± 20.8^b μg/cm^2*h. For the same compound, the Q8 (iontophoresis 0.1 mA for 8 h) was 494.0 ± 152.0^b μg/cm^2, the Flux [1] was 375.6 ± 69.44^c μg/cm^2*h and the Q8 [1] was 2879.2 ± 531.1^c μg/cm^2. For the same compound, the Flux [2] was 375.6 ± 69.44^b μg/cm^2*h and the Q8 [2] was 2879.2 ± 531.1^b μg/cm^2.
